About 180 (8.6%) of roughly 2,100 compounds showed an effect of 50% or more. The list shows a part of the results.

This assay deals with MOLM1 and UCSD/AML1 (averaged). Nature of the assay: cell viability relative to DMSO control (POC); higher = less growth inhibition. Conditions: 1 µM; 72 h. As to the method: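 Primary viability screen in the 3q26 EVI1-high AML cell lines MOLM1 and UCSD/AML1 (1.5e3 cells/well, 384-well), compounds at 1 uM for 72 h. ATP CellTiter-Glo read-out given as percent of viable cells over DMSO control (POC), averaged over duplicates. DMSO was the negative control and 5 uM etoposide the positive control. This mapping covers the MicroSource Spectrum and Selleck anticancer libraries (drug names).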
In the case of `CC(C)(C)c1ccc(C(O)CCCN2CCC(C(O)(c3ccccc3)c3ccccc3)CC2)cc1` (stereo not drawn), the cell viability (as a rule, a read-out of living cells in per cent, often relative to untreated cells) was determined as 96.2%.
Consider `Cc1cc(=O)oc2c(O)c(O)ccc12`, for which the cell viability is 93.6%.
`CC(COc1ccccc1)NC(C)C(O)c1ccc(O)cc1` (stereo not drawn): the cell viability came out at 118%.
With `Nc1ccc(S(=O)(=O)Nc2ccccn2)cc1`, the cell viability was 100%.
On to `CO[C@H]1C[C@H](O[C@H]2[C@H](C)[C@@H](O[C@@H]3O[C@H](C)C[C@H](N(C)C)[C@H]3O)[C@@H](C)C[C@@]3(CO3)C(=O)[C@H](C)[C@@H](O)[C@@H](C)[C@@H](C)OC(=O)[C@@H]2C)O[C@@H](C)[C@@H]1O`, for which the cell viability turned out to be 96.2%.
Regarding `COc1ccnc(C[S+]([O-])c2nc3cc(OC(F)F)ccc3[nH]2)c1OC` (stereo not drawn), the cell viability came to 96.9%.
The value for `O=C(O)[C@H](O)[C@@](O)(Cc1ccc(O)cc1)C(=O)O` was 92.1%; that for `Nc1ccn([C@@H]2O[C@H](CO)[C@@H](O)[C@@H]2O)c(=O)n1` [Cytarabine] was 7.02%.
The figure for `Nc1ccn([C@@H]2O[C@H](CO)[C@@H](O)[C@@H]2O)c(=O)n1` is 8.69%.
The figure for `CCCCOc1cc(CC2CNC(=O)N2)ccc1OC` (stereo not drawn) is 124%; for `CC(C)Cn1c(=O)n(C)c(=O)c2[nH]cnc21` it is 110%; for `O=c1[nH]cnc2c1ncn2[C@@H]1O[C@H](CO)[C@@H](O)[C@H]1O` it is 109%.
Take `COc1cc([C@@H]2c3cc4c(cc3[C@@H](O[C@@H]3O[C@@H]5CO[C@@H](c6cccs6)O[C@H]5[C@H](O)[C@H]3O)[C@H]3COC(=O)[C@H]23)OCO4)cc(OC)c1O`: the cell viability is 27.5%.
Consider `COc1cc([C@@H]2c3cc4c(cc3[C@@H](O[C@@H]3O[C@@H]5CO[C@@H](c6cccs6)O[C@H]5[C@H](O)[C@H]3O)[C@H]3COC(=O)[C@H]23)OCO4)cc(OC)c1O` [Teniposide (Vumon)], for which the cell viability turned out to be 12.4%.
Regarding `O=c1ccc2ccccc2o1`, the cell viability was found to be 102%.
`NCCOB(c1ccccc1)c1ccccc1`: the cell viability worked out at 117%.
The value for `CC1(C)C=Cc2cc3ccc(=O)oc3cc2O1` was 107%; that for `CCOC(=O)c1c(C)cc(O)cc1O` was 104%; that for `CN(C)CCCN1c2ccccc2Sc2ccc(Cl)cc21` was 97.2%.
In the case of `CN(C)c1ccc(O)c2c1C[C@H]1C[C@H]3[C@H](N(C)C)C(O)=C(C(N)=O)C(=O)[C@@]3(O)C(O)=C1C2=O`, the cell viability was found to be 91.5%.
In the case of `Cc1ccsc1/C=C/C1=NCCCN1C`, the cell viability was determined as 99.9%.
Consider `COc1cc(OC)c2c(=O)c(-c3ccc4c(c3)OCO4)coc2c1`, for which the cell viability amounted to 127%.
Regarding `O=c1c(O)cc([C@H]2Oc3cc(O)cc(O)c3C[C@H]2O)cc2c([C@H]3Oc4cc(O)cc(O)c4C[C@H]3O)cc(O)c(O)c12`, the cell viability turned out to be 104%.
On to `CN(Cc1cnc2nc(N)nc(N)c2n1)c1ccc(C(=O)N[C@@H](CCC(=O)O)C(=O)O)cc1` [Abitrexate (Methotrexate)], for which the cell viability came to 103%.
The figure for `O=C(COc1ccc(Cl)cc1)N1CCN(Cc2ccc3c(c2)OCO3)CC1` is 106%; for `CCOc1ccc2nc3cc(N)ccc3c(N)c2c1` it is 110%.
Take `CCN(CC)CCNc1ccc(CO)c2sc3ccccc3c(=O)c12`: the cell viability is 78.3%.
Regarding `CC(C)(C)CC(C)(C)c1ccc(O)c(Cc2ccc(Cl)cc2Cl)c1`, the cell viability was 90.6%.
Regarding `CCN(CC)CCOC(=O)C(c1ccccc1)c1ccccc1`, the cell viability amounted to 99.8%.
The value for `C[C@H]1[C@H](C)CC[C@]2(C(=O)O)CC[C@]3(C)C(=CC[C@@H]4[C@@]5(C)C[C@@H](O)[C@H](O)[C@@](C)(CO)[C@@H]5CC[C@]43C)[C@H]12` was 89.8%; that for `CCOC(=O)c1ccc(N)cc1` was 105%; that for `CC(C)CCCC(C)C1CCC2C3=CCC4CC(O)CCC4(C)C3CCC21C` (stereo not drawn) was 93%.
`C[C@]12CC[C@@H]3c4ccc(OS(=O)(=O)O)cc4CC[C@H]3[C@@H]1CCC2=O`: the cell viability is 92.4%.
Turning to `COc1cccc(OC)c1C(=O)N[C@@H]1C(=O)N2[C@@H]1SC(C)(C)[C@@H]2C(=O)O`, the cell viability was 101%.
Consider `Cc1ccc(S(=O)(=O)NC(=O)NN2CCCCCC2)cc1`, for which the cell viability came to 94.9%.
The figure for `CCCCC1(COC(=O)CCC(=O)O)C(=O)N(c2ccccc2)N(c2ccccc2)C1=O` is 93.2%; for `COc1cc(NC(C)CCCN)c2ncccc2c1` (stereo not drawn) it is 99.5%.
As to `COC(=O)[C@@H]1OC(=O)[C@H]2O[C@@]23[C@@]1(C)CCC1[C@@]2(C)CCC(=O)C(C)(C)C2C[C@@H](OC(C)=O)[C@]13C` (stereo partly drawn), the cell viability was determined as 99%.
Turning to `CSc1ccc2c(c1)N(CCC1CCCCN1C)c1ccccc1S2` (stereo not drawn), the cell viability amounted to 119%.
Take `CC1=C(/C=C/C(C)=C/C=C/C(C)=C\C(=O)O)C(C)(C)CCC1` [Isotretinoin]: the cell viability stood at 74.2%.
The figure for `CC1=C(/C=C/C(C)=C/C=C/C(C)=C\C(=O)O)C(C)(C)CCC1` is 87%.
Turning to `CC/C(=C(/CC)c1ccc(O)cc1)c1ccc(O)cc1`, the cell viability was found to be 108%.
Consider `NC(N)=Nc1nc(CSCC/C(N)=N/S(N)(=O)=O)cs1`, for which the cell viability came to 102%.
As to `COc1ccc(-c2cc(=O)c3c(OC(C)=O)cc(OC(C)=O)cc3o2)cc1`, the cell viability was 96.9%.
Take `Cc1cc(-c2ccccc2)nnc1NCCN1CCOCC1`: the cell viability was 97.7%.
For `COC1(C)CCC2OC2(C)CCC2C1CC2(C)C` (stereo not drawn), the cell viability worked out at 102%.
As to `COc1ccc(-c2ccc3c(N4CCOCC4)nc(N4C[C@@H](C)O[C@@H](C)C4)nc3n2)cc1CO`, the cell viability was 30.1%.
With `CC(=O)NCCc1ccc(O)c(-c2c(O)c(O)c3c(c2O)C(=O)c2c(cc(O)c(C(=O)O)c2C(=O)O)C3=O)c1`, the cell viability amounted to 102%.
With `CN(C)[C@@H]1C(O)=C(C(N)=O)C(=O)[C@@]2(O)C(O)=C3C(=O)c4c(O)cccc4[C@@](C)(O)[C@H]3[C@H](O)[C@@H]12`, the cell viability was 97.5%.
The figure for `COc1cc(OC)c(/C=C/S(=O)(=O)Cc2ccc(OC)c(NCC(=O)O)c2)c(OC)c1` is 41.4%; for `COC(=O)C1=C(C)NC(C)=C(C(=O)OCCN(C)Cc2ccccc2)C1c1cccc([N+](=O)[O-])c1` (stereo not drawn) it is 88.9%.
Take `Cc1cc(Nc2cc(N3CCN(C)CC3)nc(/C=C/c3ccccc3)n2)n[nH]1`: the cell viability was 19.9%.
As for `CCCC(=O)[O-].[Na+]` [Sodium butyrate], the cell viability was 91.3%.
The value for `CC(C)=CCc1c2c(c3occ(-c4ccc(O)cc4)c(=O)c3c1O)C=CC(C)(C)O2` was 108%; that for `COC(=O)C1=C(C)NC(C)=C(C(=O)OCC(C)C)C1c1ccccc1[N+](=O)[O-]` (stereo not drawn) was 100%.
As to `NC(=O)NC1NC(=O)NC1=O` (stereo not drawn), the cell viability was determined as 97.2%.
With `C[C@@H]1CC[C@@]23CCC4(C)[C@@](C=CC5[C@@]6(C)CCC(=O)C(C)(C)C6CC[C@]54C)(OC2=O)C3[C@H]1C` (stereo partly drawn), the cell viability is 95.6%.
Consider `O=C1CCc2ccc(OCCCCN3CCN(c4cccc(Cl)c4Cl)CC3)cc2N1`, for which the cell viability turned out to be 83.4%.

The values above are taken from the supplement of paper PMC11150407.
